{"source": "paper PMC6424956", "about": "(Scientific Reports, 2019)", "assay": "general procedure: Fmoc solid-phase peptide synthesis; Fmoc-Rink-Amide AM resin; COMU / Oxyma Pure", "settings": "whole synthesis, scale of the general procedure 100 μmols; for final HPLC purity: 220 nm", "note": "Values joined by “and” are separate entries in the source; they are usually repeats but may differ in a detail not shown here. Identical values can stand only once. HELM strings list residues between dots; [ac] is acetyl, [am] amide, other brackets name non-standard units. Square brackets hold non-standard residues; d marks the D form. dAla(4-thiazolyl) = N[C@H](Cc1cscn1)C(=O)O; hCha = N[C@@H](CCC1CCCCC1)C(=O)O"}
{"substance": "Ac-HA[hCha]YPRH-NH2 (SMILES CC(=O)N[C@@H](Cc1c[nH]cn1)C(=O)N[C@@H](C)C(=O)N[C@@H](CCC1CCCCC1)C(=O)N[C@@H](Cc1ccc(O)cc1)C(=O)N1CCC[C@H]1C(=O)N[C@@H](CCCNC(=N)N)C(=O)N[C@@H](Cc1c[nH]cn1)C(N)=O)", "values": [{"measurement": "final HPLC purity", "value": 100, "unit": "%"}, {"measurement": "isolated yield", "setting": "run 1", "value": "16% and 15%"}]}
{"substance": "Ac-[dAla(4-thiazolyl)][dR][dP][dY][dI][dA][dH]-NH2 (SMILES CC[C@@H](C)[C@@H](NC(=O)[C@@H](Cc1ccc(O)cc1)NC(=O)[C@H]1CCCN1C(=O)[C@@H](CCCNC(=N)N)NC(=O)[C@@H](Cc1cscn1)NC(C)=O)C(=O)N[C@H](C)C(=O)N[C@H](Cc1c[nH]cn1)C(N)=O)", "values": [{"measurement": "final HPLC purity", "setting": "run 1", "value": "97% and 98%"}]}
{"substance": "PEPTIDE1{[ac].H.A.I.Y.P.R.H.[am]}$$$$V2.0", "values": [{"measurement": "final HPLC purity", "value": 97, "unit": "%"}, {"measurement": "isolated yield", "setting": "run 1", "value": 15, "unit": "%"}]}
{"substance": "PEPTIDE1{[ac].[dH].[dR].[dP].[dY].[dI].[dA].[dH].[am]}$$$$V2.0", "values": [{"measurement": "final HPLC purity", "setting": "run 1", "value": "94% and 95%"}, {"measurement": "isolated yield", "setting": "run 1", "value": 63, "unit": "%"}]}
